Assay results published in PubChem BioAssay AID652054 (National Center for Advancing Translational Sciences (NCATS), 2013).
Screen size: about 360,000 compounds; about 9,100 (2.5%) were called active. The shares of active, inactive and inconclusive entries below differ from those in the screen. Cut-off read from the data, not from the text of the source: active = max response below about -50%; inconclusive = no clear call, values can overlap the other calls; inactive = above that.

Protein sequences, listed by entry. Tags and fused reporters are not part of them.
UniProt P35462, whole entry, looked up: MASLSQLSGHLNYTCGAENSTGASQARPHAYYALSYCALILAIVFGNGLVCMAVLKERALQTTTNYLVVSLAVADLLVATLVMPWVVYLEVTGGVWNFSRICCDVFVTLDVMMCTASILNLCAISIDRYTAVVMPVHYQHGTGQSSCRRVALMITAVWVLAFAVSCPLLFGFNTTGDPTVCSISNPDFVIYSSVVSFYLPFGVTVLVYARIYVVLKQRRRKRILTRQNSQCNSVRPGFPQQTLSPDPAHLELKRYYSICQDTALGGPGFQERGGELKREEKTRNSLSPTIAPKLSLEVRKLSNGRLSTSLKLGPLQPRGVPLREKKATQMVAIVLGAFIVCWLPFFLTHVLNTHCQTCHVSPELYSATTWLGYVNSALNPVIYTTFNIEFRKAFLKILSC

Biological target: D(3) dopamine receptor (Homo sapiens) (UniProt P35462)
Assay: qHTS of D3 Dopamine Receptor Antagonist: qHTS
Settings: D3R cells, DiscoveRx beta-arrestin luminescence, antagonist mode; hits give low values
Outline: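 Cells expressing the human receptor were seeded at 1500 cells/well, incubated overnight at 37 degrees C in 5% CO2, then exposed to library compounds with dopamine controls for 90 minutes at 37 degrees C before luminescent detection.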
% is set by controls: 0 for no effect and ±100 for the full control effect.

| SMILES | max response, negative = inhibition |
| --- | --- |
| Fc1ccc(Nc2ccnc(Nc3ccc(F)cc3)n2)cc1 | inconclusive: -35.5% |
| COc1ccc(-c2ccc(CN3C(CC(C)C)C(=O)N(Cc4cn(CC5CCCCC5)nn4)CCS3(=O)=O)cc2)cc1OC (centres undefined) | inactive: 9.24% |
| CCc1nn(C(C)C(=O)NCCN2CCN(c3cccc(C)c3C)CC2)c(=O)c2cc3occc3n12 (centres undefined) | active: -59% |
| O=C(NC(=S)Nc1nc2ccccc2s1)c1cccs1 | inconclusive: -35.5% |
| O=c1[nH]c(CN2CCN(Cc3ccccc3)CC2)nc2scc(-c3ccccc3)c12 | active: -82% |
| Cc1ccc(S(=O)(=O)N/N=C(\c2ccccc2)c2cccnc2)cc1 | inconclusive: -33.7% |
| Fc1ccc(NC(=S)NN=C2CCCCCC2)cc1 | active: -150% |
| CN(C)Cc1ccc(O)c(CCc2ccccc2)n1 | inconclusive: -38.5% |
| O=C(C1CCCO1)N(Cc1ccccc1)c1ccccc1 (centres undefined) | inconclusive: -34.3% |
| CCC(=O)Nc1ccc(NC(=O)c2ccc3c(c2)OCO3)cc1 | inconclusive: -45.9% |
| COc1ccc(C2CC(c3ccc(OC)cc3)n3nc(NC(=O)c4ccco4)nc3N2)cc1 (centres undefined) | inconclusive: -30.3% |
| CC1=CC(C)(C)N(C(=O)c2ccccc2)c2ccccc21 | inconclusive: -42.3% |
| CCCCN1CCc2c1nc1ccc(Br)cc1c2N | active: -84.2% |
| CC(C)CC(=O)NC(=S)Nc1nc(-c2cccc3ccccc23)cs1 | active: -73.4% |
| O=C(NC1CCCC1)C1C(c2ccc(C(F)(F)F)cc2)=Nc2ccccc2N1C(=O)c1ccco1 (centres undefined) | inconclusive: -37.5% |
| CC(C)(C)C1CCC(=NNC(=O)C(=O)NCc2ccco2)CC1 (centres undefined) | inconclusive: -47.1% |
| Cc1ccc2cc3cc(C(=O)N4CCN(C(=O)c5ccco5)CC4)sc3nc2c1 | inconclusive: -38.2% |
| CCCS(=O)(=O)NC(=O)C1(C)CCCN(C(=O)c2ccc3ccccc3c2)C1 (centres undefined) | inconclusive: -45.8% |
| CCOc1ccccc1NC(=O)c1cccc2c1C(=O)N(C1CCCCC1)C2 | inactive: 6.97% |
| COc1ccc(CC(=O)N(CCC2=CCCCC2)c2c(N)n(Cc3ccccc3)c(=O)[nH]c2=O)cc1OC | inactive: 7.95% |
| Cc1c(NC(=O)c2ccc(CN3CCc4ccccc4C3)cc2)c(=O)n(-c2ccccc2)n1C | active: -79% |
| O=C1/C(=C/c2ccccc2)CCc2ccc(Cl)nc21 | active: -73% |
| CC(C)(C)n1nnnc1CN(Cc1ccco1)Cc1cc2cc3c(cc2[nH]c1=O)OCO3 | inconclusive: -41.6% |
| Cc1ccccc1Oc1ncccc1C(=O)/C(C#N)=C/N(C)C | inconclusive: -35.4% |

Two entries picked at random from the list so far:

| SMILES | max response, negative = inhibition |
| --- | --- |
| CC(C)(C)C1CCC(=NNC(=O)C(=O)NCc2ccco2)CC1 (centres undefined) | inconclusive: -47.1% |
| Cc1ccccc1Oc1ncccc1C(=O)/C(C#N)=C/N(C)C | inconclusive: -35.4% |
